PMC6211773
Results are given in words; binding and its absence hold for the method and conditions named. In cells and extracts the contact can be indirect. These calls come from enrichment with a bait or labelling near it, and not all partners need be listed. For part of these data: No binding means not detected with the bait.

Experiments:
[1] = target: TbCIA1-V5 (Trypanosoma brucei) (UniProt Q581A6); experiment: affinity purification with mass spectrometry; V5 co-IP/MS from cryo-ground BSF cells; anti-V5 DynaBeads, 2 h at 4°C, 20 mM HEPES pH 7.4, 150 mM Na-citrate, 0.1% Triton X-100
[2] = target: PTP-TbCIA1 (Trypanosoma brucei) (UniProt Q581A6); experiment: affinity purification with mass spectrometry; tandem affinity purification (IgG Sepharose, TEV elution, anti-Protein C matrix) of in situ PTP-tagged baits from PCF lysates in TLB buffer; gel sections analysed by LC/MS; mock purification from wild type PCF as control
[3] = target: TbCIA1-V5 (Trypanosoma brucei) (UniProt Q581A6); experiment: affinity purification with mass spectrometry; V5 co-IP/MS from cryo-ground PCF cells; anti-V5 DynaBeads, 2 h at 4°C, 20 mM HEPES pH 7.4, 150 mM Na-citrate, 0.1% Triton X-100
[4] = target: TbCIA2A-V5 (Trypanosoma brucei) (UniProt Q38DX6); experiment: affinity purification with mass spectrometry; V5 co-IP/MS from cryo-ground BSF cells; anti-V5 DynaBeads, 2 h at 4°C, 20 mM HEPES pH 7.4, 150 mM Na-citrate, 0.1% Triton X-100
[5] = target: TbCIA2A-V5 (Trypanosoma brucei) (UniProt Q38DX6); experiment: affinity purification with mass spectrometry; V5 co-IP/MS from cryo-ground PCF cells; anti-V5 DynaBeads, 2 h at 4°C, 20 mM HEPES pH 7.4, 150 mM Na-citrate, 0.1% Triton X-100
[6] = target: PTP-TbCIA1 (Trypanosoma brucei) (UniProt Q581A6); experiment: affinity purification with mass spectrometry; combined TAP/MS and V5 co-IP/MS experiments; which of them gave the hit is not given

Row | binding [1] | binding [2] | binding [3] | binding [4] | binding [5] | Substance | binding [6]
1 | binds | binds | binds |  |  | TbCIA2A (from UniProt Q38DX6) | 
2 | binds | binds | binds | no binding | no binding | TbCIA2B (from UniProt Q57YF8) | 
3 |  |  |  |  |  | catalytic subunit of Pol δ (TbPOLD1) (from UniProt Q585S7) | binds
